From PubChem BioAssay AID493014 (National Center for Advancing Translational Sciences (NCATS), 2011)
Some of the results follow. These are further read-outs of the screen, such as a control signal, another cell line or another target. No call is given for them. Most of these compounds were active or inconclusive in the main read-out, so they are no random draw. Words in brackets tell the shape of the fitted curve; partial curves, single points and poor fits give uncertain potencies.

Assay: qHTS Assay to Find Inhibitors of Chronic Active B-Cell Receptor Signaling
Details: ABC-DLBCL IkBa-CBG/CBR reporter, luminescence ratio (green luciferase fused to IkBa over red control in TMD8 lymphoma cells), 4 h
Summary of the method: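 Concentration-response series (up to 46 uM) were applied to TMD8 dual-reporter cells for 4 h at 37C with doxycycline. Green/red ratio, after filter-overlap correction, defined %Activity; red signal alone was normalised to basal cells and zero luminescence.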

[1] = measured here: CBR red luminescence, cell number
[2] = measured here: IkBa-CBG green luminescence

SMILES	AC50 [1]	AC50 [2]
CCN(Cc1ccncc1)C(=O)CC1C(=O)NCCN1Cc1ccc(F)c(F)c1 (stereo not drawn)	0.316 µM [rising, full curve, poor fit]	–
Cc1cc(C)nc(NC(=O)Cc2cccs2)n1	0.651 µM [rising, full curve, poor fit]	–
Cc1ccc(NC(=O)C(c2ccc(Cl)cc2Cl)N2CCCC2)cc1 (stereo not drawn)	25.9 µM [falling, single point]	–
CNc1snc(C)c1C(=O)OCC(=O)c1ccc(Cl)cc1	0.326 µM [rising, partial curve, poor fit]	–
CCC(C)C1C(C#N)=C(N)Oc2n[nH]c(-c3ccccc3)c21 (stereo not drawn)	36.6 µM [falling, partial curve, poor fit]	–
O=C(Nc1nc(-c2ccccc2)c(C(=O)c2ccccc2)s1)c1ccc(S(=O)(=O)N2CCCCC2)cc1	25.9 µM [falling, partial curve, poor fit]	–
Clc1cccc(Nc2c3c(nc4ncnn24)CCC3)c1	18.4 µM [rising, single point]	–
O=C(Oc1c(CN2CCOCC2)cc(Cl)c2cccnc12)c1cccs1	0.794 µM [falling, full curve]	1.12 µM [falling, full curve, poor fit]
Nc1ccc2c(c1)nnn2-c1ccccc1	11.2 µM [falling, partial curve]	–
CNc1nc(-c2ccc(OC)cc2)c(-c2ccc(OC)cc2)s1	–	17.8 µM [falling, partial curve, poor fit]
O=C1CC(c2ccccc2)Cc2nc3ncnn3cc21 (stereo not drawn)	23.1 µM [rising, partial curve, poor fit]	10.3 µM [falling, partial curve, poor fit]
O=C(CCCN1C(=O)/C(=C/c2cccs2)SC1=S)Nc1ccc(C(=O)O)cc1	11.2 µM [falling, partial curve]	–
COc1ccccc1NC(=O)CNC(=O)c1ccccc1C	0.58 µM [falling, full curve]	–
COc1cccc(/C=C/C(=O)NNC(=O)c2ccccc2)c1OC	25.9 µM [falling, single point]	–
Cc1ccccc1OCCNc1cc(N2CC(C)NC(C)C2)ccc1[N+](=O)[O-] (stereo not drawn)	15.8 µM [falling, partial curve]	–
c1ccc2cc(C3CCCCC3)ncc2c1	14.6 µM [rising, partial curve, poor fit]	–
O=C1c2ccccc2C(Nc2ccc(S(=O)(=O)N3CCCCCC3)cc2)N1Cc1ccco1 (stereo not drawn)	5.8 µM [falling, partial curve]	7.31 µM [rising, partial curve, poor fit]
Cn1cccc1/C=C1\SC(=Nc2cccc(O)c2)NC1=O	14.1 µM [falling, partial curve]	–
Cc1noc(C)c1COc1ccc(C(=O)NCCOc2ccccc2)cc1	0.517 µM [rising, full curve, poor fit]	–
COc1ccc(OC)c(/C=N/NC(=O)c2[nH]ncc2Br)c1	1.26 µM [falling, full curve]	–

Reformatted as labelled records: entries from further up.
CNc1snc(C)c1C(=O)OCC(=O)c1ccc(Cl)cc1
  AC50 [1]: 0.326 µM [rising, partial curve, poor fit]
O=C(Nc1nc(-c2ccccc2)c(C(=O)c2ccccc2)s1)c1ccc(S(=O)(=O)N2CCCCC2)cc1
  AC50 [1]: 25.9 µM [falling, partial curve, poor fit]
O=C1c2ccccc2C(Nc2ccc(S(=O)(=O)N3CCCCCC3)cc2)N1Cc1ccco1 (stereo not drawn)
  AC50 [1]: 5.8 µM [falling, partial curve]
  AC50 [2]: 7.31 µM [rising, partial curve, poor fit]

More entries follow.

SMILES	AC50 [1]	AC50 [2]
COC(=O)c1ccccc1NC(=O)COc1ccc2c(c1)OCO2	0.631 µM [falling, partial curve, poor fit]	–
CC1CCc2nn(CC(=O)NCCCN3CCOCC3)cc2C1 (stereo not drawn)	3.66 µM [rising, partial curve, poor fit]	–
CCc1nc(N2CCN(C(=O)c3ccco3)CC2)c2c3c(sc2n1)CCCC3	11.2 µM [falling, partial curve, poor fit]	–
CCCCc1cc(=O)oc2cc(C)cc(OCC(=O)Nc3ccccn3)c12	12.6 µM [falling, single point]	–
Cc1nc([N+](=O)[O-])cn1CC(O)c1ccc(Cl)cc1 (stereo not drawn)	0.562 µM [falling, partial curve, poor fit]	–
COc1cc(C(=O)N(C)Cc2cccc(OC)c2OC)ccc1OCC(=O)Nc1cccc(C(F)(F)F)c1	0.184 µM [rising, full curve, poor fit]	–
CC(C)NC(=O)COc1coc(CN2CCN(C(=O)c3ccco3)CC2)cc1=O	5.8 µM [rising, full curve, poor fit]	–
O=C(CSc1nnc(-c2ccc3c(c2)OCO3)o1)Nc1c(F)cccc1F	11.6 µM [falling, partial curve, poor fit]	–
O=C(NC(NNc1ccc([N+](=O)[O-])cc1)(C(F)(F)F)C(F)(F)F)c1ccc(Cl)cc1	20.6 µM [falling, single point]	–
CCOc1ccc(OCC(=O)c2c(O)c3ccccc3oc2=O)cc1	3.16 µM [falling, partial curve]	–
O=C1c2ccccc2C(Nc2cccnc2)N1Cc1ccccc1Cl (stereo not drawn)	32.6 µM [falling, single point]	–
O=C(O)Cn1nc(-c2ccccc2)oc1=O	29.1 µM [falling, partial curve, poor fit]	–
CCCC(C)NC(=O)c1ccc2[nH]c3c(c2c1)CC(C)CC3 (stereo not drawn)	12.6 µM [falling, partial curve, poor fit]	–
CC1(C)C(=O)Nc2ccccc2N1C(=O)COC(=O)CSc1ccc(F)cc1	29.1 µM [falling, single point]	–
COc1cc(/C=C2\SC(=O)NC2=O)ccc1OCC(=O)N1CCOCC1	2.59 µM [rising, full curve, poor fit]	–
COc1ccc(C(=O)c2sc(Nc3ccc(NC(C)=O)cc3)nc2C)cc1	25.1 µM [falling, single point]	–
CCOC(=O)C1CCN(S(=O)(=O)c2ccc3c(c2)CC(=O)N3C)CC1	35.5 µM [falling, single point]	–
CSc1cccc(NC(=O)/C=C/c2ccco2)c1	10 µM [falling, partial curve, poor fit]	–
Cc1ccc(Nc2nc(-c3ccc(S(=O)(=O)N4CCCC4)cc3)cs2)cc1C	7.94 µM [falling, partial curve, poor fit]	–
CCOC(=O)C#CC(CCc1ccccc1)OS(N)(=O)=O (stereo not drawn)	22.4 µM [falling, single point]	–
